Data on ten molecules can be found in PMC13475435.

Protein sequences, listed by entry. Tags and fused reporters are not part of them. Lines headed by an entry give the natural chain unless they say otherwise; changes in a name come on top.
UniProt A2ABV5: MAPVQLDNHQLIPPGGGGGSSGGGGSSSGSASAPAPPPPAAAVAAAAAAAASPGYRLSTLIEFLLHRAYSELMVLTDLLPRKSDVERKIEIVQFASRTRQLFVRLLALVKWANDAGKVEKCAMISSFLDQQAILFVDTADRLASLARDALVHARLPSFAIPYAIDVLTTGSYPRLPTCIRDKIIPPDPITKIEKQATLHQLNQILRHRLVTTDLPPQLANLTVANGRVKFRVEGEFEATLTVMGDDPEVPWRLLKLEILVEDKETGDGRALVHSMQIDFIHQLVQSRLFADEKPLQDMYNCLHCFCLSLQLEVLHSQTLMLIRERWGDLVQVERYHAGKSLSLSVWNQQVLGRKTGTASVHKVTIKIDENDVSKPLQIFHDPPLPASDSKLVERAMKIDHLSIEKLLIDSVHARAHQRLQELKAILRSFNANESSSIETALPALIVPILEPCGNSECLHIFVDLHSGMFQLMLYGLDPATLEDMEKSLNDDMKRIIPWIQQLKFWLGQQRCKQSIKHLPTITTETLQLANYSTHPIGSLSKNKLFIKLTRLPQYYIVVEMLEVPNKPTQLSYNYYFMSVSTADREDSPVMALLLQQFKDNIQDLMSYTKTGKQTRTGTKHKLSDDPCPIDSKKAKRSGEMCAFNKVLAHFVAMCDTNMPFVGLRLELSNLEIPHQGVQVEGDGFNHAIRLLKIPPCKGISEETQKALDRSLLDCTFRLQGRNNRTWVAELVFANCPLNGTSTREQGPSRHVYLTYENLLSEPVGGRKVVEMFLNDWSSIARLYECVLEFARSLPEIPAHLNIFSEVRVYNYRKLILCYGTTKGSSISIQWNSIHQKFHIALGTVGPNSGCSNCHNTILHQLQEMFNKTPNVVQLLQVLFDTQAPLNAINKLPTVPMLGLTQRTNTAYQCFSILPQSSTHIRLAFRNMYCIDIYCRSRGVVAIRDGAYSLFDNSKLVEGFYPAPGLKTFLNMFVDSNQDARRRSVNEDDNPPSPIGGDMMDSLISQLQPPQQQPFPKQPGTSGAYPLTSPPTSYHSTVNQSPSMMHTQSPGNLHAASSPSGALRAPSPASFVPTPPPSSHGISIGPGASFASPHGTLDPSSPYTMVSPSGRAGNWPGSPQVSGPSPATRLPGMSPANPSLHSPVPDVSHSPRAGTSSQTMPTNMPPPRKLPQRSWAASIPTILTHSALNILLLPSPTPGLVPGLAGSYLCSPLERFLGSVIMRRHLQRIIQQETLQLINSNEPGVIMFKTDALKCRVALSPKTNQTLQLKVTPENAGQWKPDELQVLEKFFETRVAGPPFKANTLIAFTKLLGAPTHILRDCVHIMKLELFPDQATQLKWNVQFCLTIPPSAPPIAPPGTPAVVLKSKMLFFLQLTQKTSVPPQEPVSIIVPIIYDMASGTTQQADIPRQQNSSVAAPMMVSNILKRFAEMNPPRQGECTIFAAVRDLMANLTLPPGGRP
UniProt O60244: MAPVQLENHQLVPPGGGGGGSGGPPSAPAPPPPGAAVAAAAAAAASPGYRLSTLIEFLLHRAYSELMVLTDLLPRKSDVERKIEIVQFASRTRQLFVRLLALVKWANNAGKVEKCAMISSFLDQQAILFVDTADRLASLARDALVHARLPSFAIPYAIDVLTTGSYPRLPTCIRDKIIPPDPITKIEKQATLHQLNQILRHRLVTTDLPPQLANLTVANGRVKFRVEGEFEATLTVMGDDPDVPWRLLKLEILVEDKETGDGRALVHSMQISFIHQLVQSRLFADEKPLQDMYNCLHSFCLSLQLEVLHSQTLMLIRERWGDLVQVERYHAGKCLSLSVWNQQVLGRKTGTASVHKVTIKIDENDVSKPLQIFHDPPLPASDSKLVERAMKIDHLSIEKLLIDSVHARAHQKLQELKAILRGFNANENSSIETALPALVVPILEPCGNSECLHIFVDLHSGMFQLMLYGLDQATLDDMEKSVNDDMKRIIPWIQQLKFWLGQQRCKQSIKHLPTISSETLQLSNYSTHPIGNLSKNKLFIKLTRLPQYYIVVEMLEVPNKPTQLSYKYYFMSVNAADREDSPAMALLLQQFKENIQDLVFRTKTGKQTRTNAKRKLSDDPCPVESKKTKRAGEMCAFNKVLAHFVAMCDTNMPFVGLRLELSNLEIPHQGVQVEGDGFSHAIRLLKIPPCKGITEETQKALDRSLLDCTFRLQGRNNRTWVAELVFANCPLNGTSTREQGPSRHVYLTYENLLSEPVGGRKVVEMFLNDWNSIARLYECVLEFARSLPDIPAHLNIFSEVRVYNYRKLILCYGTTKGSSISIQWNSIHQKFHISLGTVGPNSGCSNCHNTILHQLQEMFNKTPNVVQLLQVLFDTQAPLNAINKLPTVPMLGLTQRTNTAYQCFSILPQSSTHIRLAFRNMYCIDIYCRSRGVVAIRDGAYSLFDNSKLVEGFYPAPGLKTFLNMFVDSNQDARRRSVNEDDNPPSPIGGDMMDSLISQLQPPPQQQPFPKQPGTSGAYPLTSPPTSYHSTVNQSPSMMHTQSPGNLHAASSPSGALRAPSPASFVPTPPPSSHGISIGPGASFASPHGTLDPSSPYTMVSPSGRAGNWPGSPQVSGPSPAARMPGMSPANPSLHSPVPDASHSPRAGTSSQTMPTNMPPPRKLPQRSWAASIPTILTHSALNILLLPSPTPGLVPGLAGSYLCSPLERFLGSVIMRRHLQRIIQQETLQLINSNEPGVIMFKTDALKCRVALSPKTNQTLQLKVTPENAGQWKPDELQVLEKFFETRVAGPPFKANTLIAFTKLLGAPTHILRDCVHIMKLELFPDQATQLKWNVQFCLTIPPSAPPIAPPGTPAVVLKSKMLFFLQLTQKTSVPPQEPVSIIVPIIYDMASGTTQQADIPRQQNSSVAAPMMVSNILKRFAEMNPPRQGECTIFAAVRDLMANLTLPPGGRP
UniProt Q96G25: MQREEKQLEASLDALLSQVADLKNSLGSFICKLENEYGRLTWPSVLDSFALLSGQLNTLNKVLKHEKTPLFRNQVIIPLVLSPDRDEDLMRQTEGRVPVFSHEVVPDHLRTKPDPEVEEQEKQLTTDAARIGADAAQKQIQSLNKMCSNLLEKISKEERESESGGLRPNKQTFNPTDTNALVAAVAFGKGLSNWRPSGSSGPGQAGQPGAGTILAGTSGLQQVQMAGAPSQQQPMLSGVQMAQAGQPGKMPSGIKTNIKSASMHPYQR

Assay [1] deals with T1, zebrafish Med7 (endogenous in embryos) (zebrafish (endogenous in embryos)) (UniProt Q7ZV35).
T1 sequence: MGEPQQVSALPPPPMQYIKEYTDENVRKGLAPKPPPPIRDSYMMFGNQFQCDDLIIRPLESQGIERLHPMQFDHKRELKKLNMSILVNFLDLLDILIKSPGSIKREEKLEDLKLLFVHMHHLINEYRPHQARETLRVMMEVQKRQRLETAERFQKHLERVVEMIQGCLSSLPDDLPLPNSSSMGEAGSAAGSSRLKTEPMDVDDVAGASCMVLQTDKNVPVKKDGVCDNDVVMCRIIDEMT
Put plainly: co-IP; endogenous proteins of zebrafish embryos (wild type, the comparison for the med14 mutants); IP with anti-Med17 or anti-Med7 antibody, western blot. On the technique in general: A western blot detects proteins with antibodies after separation by electrophoresis.

For assay [2], the target named is T2, zebrafish Med17 (endogenous in embryos) (zebrafish (endogenous in embryos)) (UniProt Q08BY1).
T2 sequence: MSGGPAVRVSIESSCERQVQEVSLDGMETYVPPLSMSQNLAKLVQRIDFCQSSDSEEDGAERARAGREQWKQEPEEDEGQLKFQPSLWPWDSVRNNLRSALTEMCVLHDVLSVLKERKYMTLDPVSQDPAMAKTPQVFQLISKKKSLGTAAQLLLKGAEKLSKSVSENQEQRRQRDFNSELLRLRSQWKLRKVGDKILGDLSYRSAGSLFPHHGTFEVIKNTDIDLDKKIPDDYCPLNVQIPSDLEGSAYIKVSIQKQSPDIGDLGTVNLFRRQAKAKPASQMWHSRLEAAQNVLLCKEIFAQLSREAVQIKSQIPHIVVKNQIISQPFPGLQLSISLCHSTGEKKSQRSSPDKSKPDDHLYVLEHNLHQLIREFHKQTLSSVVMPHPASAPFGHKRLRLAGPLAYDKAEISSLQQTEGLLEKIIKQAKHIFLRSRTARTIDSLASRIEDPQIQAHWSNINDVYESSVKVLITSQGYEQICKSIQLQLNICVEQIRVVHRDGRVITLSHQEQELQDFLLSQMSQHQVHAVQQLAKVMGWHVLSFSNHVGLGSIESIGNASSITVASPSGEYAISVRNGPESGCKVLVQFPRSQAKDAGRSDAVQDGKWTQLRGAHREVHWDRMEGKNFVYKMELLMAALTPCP
The description is as above.

Assay [3] addresses mouse MED14, wild type (endogenous in MEFs) (mouse (endogenous in MEFs)) (UniProt A2ABV5). Put plainly: co-IP; endogenous proteins of primary MEFs isolated from WT and I556V mice at E12.5; antibody of the IP not stated; western blot for MED6, MED7, MED8, MED17, RPB1.
Assay [4] has as its target mouse MED14-I556V (endogenous in MEFs of knock-in mice) (mouse (endogenous in MEFs)) (UniProt A2ABV5). Described as above.
The target in assay [5] is Flag-tagged WT human MED14 (hMED14) (human) (UniProt O60244). In words: co-IP; HEK293T co-transfected with Flag-hMED14 (WT or I550V) and the partner; lysed in RIPA buffer 24 h after transfection; IP with anti-Flag antibody, protein A-Sepharose, overnight at 4 °C; western blot.
Assay [6] has as its target Flag-tagged human MED14 I550V variant (hMED14-I550V) (human) (UniProt O60244). The description is as above.

Where a chain is given by its changes, count along the chain named. No constants are given. Whether binding was seen depends on the method and setting. Binding seen in cells or lysates may run through a third protein. Some results given as binding are weak or reduced against the parent protein; the word gives no strength. For some assays here: Where a sequence is shown, tags or fusion partners need not be part of it.

B1: zebrafish Med8 (endogenous in embryos) (protein, UniProt Q6NYT1 1-267)
chain: MQQREEKQLEAFLESLVARVAHLKGSLQSFIYKLENEYDRLTWPSVLDNFALISGQLNTINKLLRNEKTPSYKSQVIIPLLLSPDRDEELAKLTEHRVPVFSHEIVPDHLRTKPDPEVEEQEKHLSAEAARIGPEVAQKQIQALNKLCSNLLEKLNNPREDRDSETSALRQNKPSFNPADTNALVAAVGFGKGLSKCRPPGPVAPGHPGQPMMQTGPTLQQVTIAGASGHQAGMSGPVAPQQPGQPGKIPSNIKTNIKSASMHPYNR
Regarding B1, the binding result in assay [1] and in assay [2] was “binds” throughout.

B2: zebrafish Med6 (endogenous in embryos) (protein, UniProt Q6IQ63 1-254)
chain: MATVDLRDNLLGISWVDSGWVPILNPSNVLEYFSERSNPFYDRTCNNEVVKMQRSTLDHLTQLVGVEYILLHTQEPILYIIRKQQRQSPTQVIPLADYYIIAGVVYQAPDLGSVISSRALSAVHGIQSAFDEAMSFCRYHPSKGYWWHFKDQEEKERVKPKSKRKEEPSSLFQRQRVDTLLLDLRNKFPPTFYQTKPGEKPVPVEVKKEPEVPVETVKPQEERETKPPAPPAPPRPPPQTTPNKPPPEKRARVQ
On to B2, for which the binding result in assay [1] and in assay [2] was “binds” each time.

B3: mouse MED6 (endogenous in MEFs) (protein, UniProt Q921D4 1-246)
chain: MAAVDIRDNLLGISWVDSSWIPILNSGSVLDYFSERSNPFYDRTCNNEVVKMQRLTLEHLNQMVGIEYILLHAQEPILFIIRKQQRQSPAQVIPLADYYIIAGVIYQAPDLGSVINSRVLTAVHGIQSAFDEAMSYCRYHPSKGYWWHFKDHEEQEKVKPKAKRKEEPSSIFQRQRVDALLIDLRQKFPPRFVQQKSGEKPVPVDQAKKEAEPLPETVKSEEKESTKNIQQTVSTKGPPEKRMRLQ
With B3, the binding result in assay [3] and in assay [4] was “binds” throughout.

B4: mouse MED17 (endogenous in MEFs) (protein, UniProt Q8VCD5 1-649)
chain: MSGVRAVRISIESACEKQVQEVGLDGTETYLQPLSMSQNLARLAQRIDFSQGSGSEEEEAAGPDGDAPDWGGAGADQDDEEGLVKFQPSLWPWDSVRNNLRSALTEMCVLYDVLSIVRDKKFMTLDPVSQDALPPKQSPQTLQLISKKKSLAGAAQILLKGAERLTKSVAENQENKLQRDFNSELLRLRQHWKLRKVGDKILGDLSYRSAGSLFPHHGTFEVIKNTDIDLDKKIPEDYCPLDVQIPSDLEGSAYIKVSIQKQAPDIGDLGTVNLFKRPLPKSKPGSPHWQTKLEAAQNVLLCKEIFAQLSREAVQIKSQIPHIVVKNQIISQPFPSLQLSISLCHSSDDKKSQKCAAEKPGQEDHLYVLEHNLHLLIREFHKQTLSSIVMPHPASAPFGHKRMRLSGPQAFDKNEINSIQSTEGLLEKIIKQAKHIFLRSRTAATIDSLASRIEDPQIQAHWSNINDVYESSVKVLITSQGYEQICKSIQLQLNIGVEQVRVVHRDGRVIMLSHQEQELQDFLLSQMSQHQVHAVQQLAKVMGWQVLSFSNHVGLGPIESIGNASAITVASPSGDYAISVRNGPESGSKIMVQFPRNQCKDLPKSDVLQDSKWSHLRGPFKEVQWNKMEGRNFVYKMELLMSALSPCLL
On to B4, for which the binding result is recorded as “binds” in assay [3] and “binds weakly” in assay [4].

B5: mouse MED7 (endogenous in MEFs) (protein, UniProt Q9CZB6 1-233)
chain: MGEPQQVSALPPPPMQYIKEYTDENIQEGLAPKPPPPIKDSYMMFGNQFQCDDLIIRPLESQGIERLHPMQFDHKKELRKLNMSILINFLDLLDILIRSPGSIKREEKLEDLKLLFVHVHHLINEYRPHQARETLRVMMEVQKRQRLETAERFQKHLERVIEMIQNCLASLPDDLPHSEAGMRVKAEPMDTDDNSNCPGQNEQQRESSGHRRDQIIEKDAALCVLIDEMNERP
As for B5, the values for the binding result in assay [3] and in assay [4] were “binds” and “binds weakly”, respectively.

B6: Myc-tagged human MED7 (hMED7) (protein, UniProt O43513 1-233)
chain: B5 chain with A186T, T191A, N194S, S195N, P198T, Q203H, S207N
For B6, the binding result is given as “binds” in assay [5] and “binds weakly” in assay [6].

B7: human MED6 (hMED6) (protein, UniProt O75586 1-246)
chain: MAAVDIRDNLLGISWVDSSWIPILNSGSVLDYFSERSNPFYDRTCNNEVVKMQRLTLEHLNQMVGIEYILLHAQEPILFIIRKQQRQSPAQVIPLADYYIIAGVIYQAPDLGSVINSRVLTAVHGIQSAFDEAMSYCRYHPSKGYWWHFKDHEEQDKVRPKAKRKEEPSSIFQRQRVDALLLDLRQKFPPKFVQLKPGEKPVPVDQTKKEAEPIPETVKPEEKETTKNVQQTVSAKGPPEKRMRLQ
With B7, the binding entry in assay [5] and in assay [6] was “binds” each time.

B8: Myc-tagged human MED17 (hMED17) (protein, UniProt Q9NVC6 1-651)
chain: MSGVRAVRISIESACEKQVHEVGLDGTETYLPPLSMSQNLARLAQRIDFSQGSGSEEEEAAGTEGDAQEWPGAGSSADQDDEEGVVKFQPSLWPWDSVRNNLRSALTEMCVLYDVLSIVRDKKFMTLDPVSQDALPPKQNPQTLQLISKKKSLAGAAQILLKGAERLTKSVTENQENKLQRDFNSELLRLRQHWKLRKVGDKILGDLSYRSAGSLFPHHGTFEVIKNTDLDLDKKIPEDYCPLDVQIPSDLEGSAYIKVSIQKQAPDIGDLGTVNLFKRPLPKSKPGSPHWQTKLEAAQNVLLCKEIFAQLSREAVQIKSQVPHIVVKNQIISQPFPSLQLSISLCHSSNDKKSQKFATEKQCPEDHLYVLEHNLHLLIREFHKQTLSSIMMPHPASAPFGHKRMRLSGPQAFDKNEINSLQSSEGLLEKIIKQAKHIFLRSRAAATIDSLASRIEDPQIQAHWSNINDVYESSVKVLITSQGYEQICKSIQLQLNIGVEQIRVVHRDGRVITLSYQEQELQDFLLSQMSQHQVHAVQQLAKVMGWQVLSFSNHVGLGPIESIGNASAITVASPSGDYAISVRNGPESGSKIMVQFPRNQCKDLPKSDVLQDNKWSHLRGPFKEVQWNKMEGRNFVYKMELLMSALSPCLL
For the molecule B8, the binding entry in assay [5] and in assay [6] was “binds” in each case.

B9: mouse MED8 (endogenous in MEFs) (protein, UniProt Q9D7W5 1-268)
chain: MQREEKQLEASLDALLNQVADLKNSLGSFIYKLENEYDRLTWPSVLDSFALLSGQLNTLNKVLKHEKTPLFRNQVIIPLVLSPDRDEDLMRQTEGRVPVFSHEVVPDHLRTKPDPEVEEQEKQLTTDAARIGADAAQKQIQSLNKMCSNLLEKISKEERESESGGLRPNKQTFNPGDTNALVAAVAFGKGLSNWRPSGSSGPGQPGQPGAGTILAGASGLPQVQMPGAPNQQQPMLSGVQMAQAGQPGKMPSGIKTNIKSASMHPYQR
B9: the binding entry in assay [3] and in assay [4] was “binds” each time.

B10: human MED8 (hMED8) (protein, UniProt Q96G25 1-268)
chain: B9 chain with N17S, Y31C, D38G, G176T, P205A, A217T, P221Q, P226A, N230S
For B10, the binding result in assay [5] and in assay [6] was “binds” each time.
